# PubChem BioAssay AID1259308, NCATS – 2017
# Aim: 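Knock-downs that increase output of a recombinant reporter protein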 (primary screen)
# Cell system: human HEK293 embryonic kidney cells stably expressing firefly luciferase (HEK-CMV-Luc2-Hygro)
# Knock-down reagent: single siRNA against human genes, 0.8 pmol siRNA per well
# Time to read-out: 72 h
# Measurement: 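Reporter luminescence and viable-cell signal on separate replicate plates, given as percent of non-targeting control and median/MAD z-scores, plus per-cell luciferase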
# Reading the numbers: total luciferase, z-score and total luciferase, % of control: higher = more reporter protein produced; luciferase per cell, z-score: higher = more reporter output per viable cell
# Active means: 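Active when the median/MAD z-score for overall luciferase is greater than 3; a gene was taken forward for validation with new siRNAs if at least two of its three siRNAs passed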
# Calls: active = raised luciferase; inactive = no rise
# The deposit covers about 59,000 reagents; shown is a random part of them. Of all reagents, about 1,510 (2.6%) got an active call. 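Calls use total luciferase alone and ignore viability, so some active siRNAs may act by altering cell number.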 Reagents against one gene are numbered here. Further read-outs or replicates are left out here.
The first 3 records, to show the layout:
Target gene,siRNA no.,"total luciferase, z-score","total luciferase, % of control","luciferase per cell, z-score",Call
ACO1 (GeneID 48),1,1.11,104,0.0946,inactive
ACO1 (GeneID 48),2,-0.607,69.8,-0.507,inactive
ACO1 (GeneID 48),3,-0.877,64.4,-1.09,inactive

Main list, repeating the preview:
Target gene,siRNA no.,"total luciferase, z-score","total luciferase, % of control","luciferase per cell, z-score",Call
ACO1 (GeneID 48),1,1.11,104,0.0946,inactive
ACO1 (GeneID 48),2,-0.607,69.8,-0.507,inactive
ACO1 (GeneID 48),3,-0.877,64.4,-1.09,inactive
SF3B6 (GeneID 51639),1,-0.623,69.5,1.23,inactive
SF3B6 (GeneID 51639),2,-0.198,77.9,2.01,inactive
SF3B6 (GeneID 51639),3,0.0494,82.9,2.66,inactive
LOC642249 (GeneID 642249),1,-1.63,49.6,-1.92,inactive
LOC642249 (GeneID 642249),2,2.07,123,1.66,inactive
LOC642249 (GeneID 642249),3,1.13,104,1.08,inactive
JSRP1 (GeneID 126306),1,-0.586,70.2,0.864,inactive
JSRP1 (GeneID 126306),2,0.959,101,0.674,inactive
JSRP1 (GeneID 126306),3,-0.101,79.9,-0.0167,inactive
ISCU (GeneID 23479),1,-1.61,49.8,-0.481,inactive
ISCU (GeneID 23479),2,-1.58,50.6,-1.17,inactive
ISCU (GeneID 23479),3,-1.63,49.4,-0.575,inactive
TFAP2D (GeneID 83741),1,0.343,88.7,0.516,inactive
TFAP2D (GeneID 83741),2,-0.502,71.9,-0.936,inactive
TFAP2D (GeneID 83741),3,-0.422,73.5,-0.399,inactive
TPRA1 (GeneID 131601),1,0.893,99.7,1.78,inactive
TPRA1 (GeneID 131601),2,1.44,111,1.65,inactive
TPRA1 (GeneID 131601),3,-1.93,43.4,-2.81,inactive
HMGN2P31 (GeneID 645930),1,0.414,90.1,-0.451,inactive
HMGN2P31 (GeneID 645930),2,0.1,83.9,-0.466,inactive
HMGN2P31 (GeneID 645930),3,-0.423,73.5,0.272,inactive
